Some entries share one result that the patent states for a list of compounds.
Tested on: Haemontus Contortus
Assay: Activity in vitro against Haemonchus contortus (egg hatch / larval development)
Format: cell-based
Conditions: dosage of 10 mg/mL; text summary of Table 3 (all nematodes tested)

Substance | efficacies
2-Cyano-2-(ruthenocenecarboxamido)propyl ruthenocnecarboxylate [Compound 2a] | up to 54%
N-(1-(ferrocenyloxy)-2-cyanopropan-2-yl)ferroceneamide [Compound 1] | up to 54%
